Measurements from paper PMC5865150, “Structure and evolution of the Fam20 kinases” (Nature Communications, 2018).
No constants are given. Whether binding was seen depends on the method and setting. Binding can be weak; no strength is given. Where a sequence is shown, tags or fusion partners need not be part of it.

Molecular target: zebrafish Fam20C ortholog drFam20C (residues 124-560), untagged (Danio rerio)
Test: crystal structure; Fam20A-drFam20C complex, formed with 0.25 mM ATP and purified by size exclusion; crystals at 20 °C in 11% 2-propanol, 0.1 M sodium citrate tribasic pH 5.0, 8% PEG 10,000; both purified

B1: human Fam20A (residues 69-529), untagged (domain or fragment, UniProt Q96MK3 69-529, looked up)
chain: HNFSRTEPRTEPAGGSHSGSSSKLQALFAHPLYNVPEEPPLLGAEDSLLASQEALRYYRRKVARWNRRHKMYREQMNLTSLDPPLQLRLEASWVQFHLGINRHGLYSRSSPVVSKLLQDMRHFPTISADYSQDEKALLGACDCTQIVKPSGVHLKLVLRFSDFGKAMFKPMRQQRDEETPVDFFYFIDFQRHNAEIAAFHLDRILDFRRVPPTVGRIVNVTKEILEVTKNEILQSVFFVSPASNVCFFAKCPYMCKTEYAVCGNPHLLEGSLSAFLPSLNLAPRLSVPNPWIRSYTLAGKEEWEVNPLYCDTVKQIYPYNNSQRLLNVIDMAIFDFLIGNMDRHHYEMFTKFGDDGFLIHLDNARGFGRHSHDEISILSPLSQCCMIKKKTLLHLQLLAQADYRLSDVMRESLLEDQLSPVLTEPHLLALDRRLQTILRTVEGCIVAHGQQSVIVDGPVEQ
notes: human Fam20A, pseudokinase, residues 69-529; Crystallised and kept with 0.25 mM ATP; also called hsFam20A; source: High Five insect cells (baculovirus), conditioned medium, purified (Ni-NTA, TEV digestion, Resource Q, size exclusion); not shown: His6, N-terminal, cleaved; MBP, N-terminal, cleaved
- binding: binds
